Test results: patent publication US20040265932A1 (AbbVie / Abbott, published 2004)
No constants are given. Whether binding was seen depends on the method and setting. Some entries that bind do so weakly or less than the wild type. Where a sequence is shown, tags or fusion partners need not be part of it.

Sequences of proteins named here, by UniProt entry; tags and fusion partners are left off. A change or cut given only in a name is not applied to a line headed by its entry.
UniProt Q13296: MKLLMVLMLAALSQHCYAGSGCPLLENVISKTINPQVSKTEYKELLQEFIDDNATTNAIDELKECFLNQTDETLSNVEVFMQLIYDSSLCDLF

What was measured:
[1] = biological target: Mammaglobin M/H (myc/his tagged Mammaglobin, transient transfection of HEK293 cells) (human) (UniProt Q13296); assay: Western blots, non-reducing against reducing; complex dissociated by beta-mercaptoethanol
[2] = biological target: Mammaglobin M/H (myc/his tagged Mammaglobin, transient transfection of HEK293 cells) (human) (UniProt Q13296); assay: anion exchange chromatography at pH 6.0 with anti-myc dot blot
[3] = biological target: Mammaglobin M/H (myc/his tagged Mammaglobin, transient transfection of HEK293 cells) (human) (UniProt Q13296); assay: gel filtration (Superose 12), single peak of 56 kD

Measured: binding

B1: BU101 polypeptide from breast cancer tissue extract (other)
chain: EFCPALVSELLDFFFISEPLFKLSLAKFDAPPEAVAAKLGVKRCTDQMSLQKRSLIAEVLVKILKKCSV
notes: native protein in tissue extract, about 7 kD reduced
binds: all assays above
